Consider 1 compound from patent US6869939B2, “Formulations containing amiodarone and sulfoalkyl ether cyclodextrin” (CyDex, Inc., priority 2002, dated 2005).

For series [1] the following is noted: without heating.
For series [2] the following is noted: cited from earlier work.

Read-outs that look alike come from different tables or passages of the source.

Take `CCCCc1oc2ccccc2c1C(=O)c1cc(I)c(OCCN(CC)CC)c(I)c1.Cl` [Amiodarone HCl, (2-butyl-3-benzofuranyl)[4-[2-(diethylamino)ethoxy]-3,5-diiodophenyl]methanone hydrochloride]: the “amiodarone concentration that can be achieved” value in series [1] (SAE-CD 0.37 M, 80% wt.) is recorded as “at least 100 mg/mL”. Also, the “amiodarone concentration that can easily be achieved” value in series [1] ([…]) is recorded as “about 35 mg/ml”. In addition, the “amiodarone concentration that could be achieved” value in series [2] (25° C. (Ravin et al. 1975)) is on record as 0.35 mg/mL; in series [2] (40° C. (Ravin et al. 1975)), 0.95 mg/mL; in series [2] (about 60° C. (Ravin et al. 1975)) it was greater than 13 mg/mL.
